This is an account of results in PubChem BioAssay AID256 (DTP/NCI, 2004).

The test has as its system CD2F1 mice, L1210 leukemia ip, survival T/C. In words: NCI In Vivo Anticancer Drug Screen. Data for tumor model L1210 Leukemia (intraperitoneal) in CD2F1 (CDF1) mice. As to conditions: higher T/C = longer survival. In short, it runs like this:
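Compound-dosed mice with transplantable tumor versus matched vehicle controls; endpoint ratio T/C reported.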

The mark [1] stands for this setting: T/C endpoint: mean survival time, dose: 400.0 mg/kg/injection, schedule: Q01DX001 (ip), vehicle: saline with Tween-80.
Where [2] appears, read: T/C endpoint: mean survival time, dose: 100.0 mg/kg/injection, schedule: Q04DX003 (ip), vehicle: saline with Tween-80.
The mark [3] stands for this setting: T/C endpoint: mean survival time, dose: 200.0 mg/kg/injection, schedule: Q04DX003 (ip), vehicle: saline with Tween-80.
[4] abbreviates: T/C endpoint: mean survival time, dose: 200.0 mg/kg/injection, schedule: Q04DX003 (ip), vehicle: saline.
The mark [5] stands for this setting: T/C endpoint: mean survival time, dose: 400.0 mg/kg/injection, schedule: Q04DX003 (ip), vehicle: saline.
The mark [6] stands for this setting: T/C endpoint: mean survival time, dose: 400.0 mg/kg/injection, schedule: Q04DX003 (ip), vehicle: saline with Tween-80.
The mark [7] stands for this setting: T/C endpoint: mean survival time, dose: 200.0 mg/kg/injection, schedule: Q01DX009 (ip), vehicle: other.
Setting [8] is: T/C endpoint: mean survival time, dose: 400.0 mg/kg/injection, schedule: Q01DX009 (ip), vehicle: other.
[9] abbreviates: T/C endpoint: median survival time, dose: 100.0 mg/kg/injection, schedule: Q01DX005 (ip), vehicle: Klucel (hydroxypropylcellulose) (HPC).

The structures appear in SMILES notation. The list shows only some results of the screen, not a fair sample: it is rich in T/C values a quarter to a half above the control, in often repeated tests (any T/C) and in doses without a T/C. Further doses and runs are listed elsewhere. T/C gives the treated animals as a percentage of the vehicle group. Some entries give survivors of the animals treated and no T/C: the source holds a T/C of zero for them, seemingly a mark for toxic or unscored doses. Some survivor counts are full or nearly so, which does not show that the dose was tolerated: survival well below the control is almost never listed, so the zero probably covers shortened survival too. Survivors were counted at the toxicity check, usually on the fifth day, unless a day is given; later deaths do not show. Schedules are NCI's codes, taken here to give the interval after Q, in days (D) or hours (H), and the number of doses after X. Some entries hold several experiments; the results are listed from low to high. Some molecules as drawn cover several salts, stereoisomers or complexes of the source; a dose is that of the sample tested. For survival time, the PubChem record calls one and a half times the control and up active, and a quarter to a half above the control has no call in these data; cut-offs in other NCI protocols can differ.

With `O=C1C=C(c2ccccc2)C/C1=C\c1ccccc1`, the survivor count under setting [1] was 3 of 3.
As to `N#CCCc1ccccc1`, the survivor count is on record as 2 of 6 (T/C endpoint: mean survival time, dose: 50.0 mg/kg/injection, schedule: Q04DX003 (ip), vehicle: saline with Tween-80); 3 of 6 under setting [2]; 1 of 6 under setting [3].
For `c1ccc2c(c1)[nH]c1c3[n+](ccc12)CCCC3`, the survivor count runs as follows: (T/C endpoint: mean survival time, dose: 200.0 mg/kg/injection, schedule: Q01DX001 (ip), vehicle: saline) 0 of 6; (T/C endpoint: mean survival time, dose: 400.0 mg/kg/injection, schedule: Q01DX001 (ip), vehicle: saline) 0 of 6.
With `NC(=O)C1(Cl)CC2C=CC1C2` (stereo not given), the survivor count runs as follows: under setting [4], 1 of 6; under setting [5], 1 of 6.
For the compound `CC12CCCCC1SC(F)(F)C2(F)F` (stereo not given), the survivor count under setting [2] is recorded as 6 of 6, the survivor count under setting [3] is given as 0 of 6 and the survivor count under setting [6] is on record as 0 of 6.
On to `O=C(CC(=O)c1ccccc1)c1ccccc1.O=C(CC(=O)c1ccccc1)c1ccccc1.[Cl][Sn][Cl]`, for which the survivor count under setting [6] was 4 of 6.
For the compound `CCOC(=O)C[n+]1ccccc1`, under setting [5], the survivor count was 0 of 6 and 1 of 6.
Take `Cn1c(Cl)nc2c(Cl)nc(Cl)nc21`: the survivor count by setting is: (T/C endpoint: mean survival time, dose: 200.0 mg/kg/injection, schedule: Q04DX003 (ip), vehicle: Klucel (hydroxypropylcellulose) (HPC)) 0 of 6; (T/C endpoint: mean survival time, dose: 400.0 mg/kg/injection, schedule: Q04DX003 (ip), vehicle: Klucel (hydroxypropylcellulose) (HPC)) 0 of 6.
For `[Cl][Pt+2][Cl].[NH-]c1ccc(F)cc1F.[NH-]c1ccc(F)cc1F`, the T/C (T/C endpoint: mean survival time, dose: 50.0 mg/kg/injection, schedule: Q04DX003 (ip), vehicle: distilled water + Tween-80) was 128 % of control. The survivor count (T/C endpoint: mean survival time, dose: 200.0 mg/kg/injection, schedule: Q04DX003 (ip), vehicle: distilled water + Tween-80) was 0 of 6 and 1 of 6.
Regarding `C[n+]1ccccc1/C=C/c1cccc(O)c1`, the survivor count (T/C endpoint: mean survival time, dose: 75.0 mg/kg/injection, schedule: Q01DX001 (ip), vehicle: other) is 0 of 6; the survivor count (T/C endpoint: mean survival time, dose: 150.0 mg/kg/injection, schedule: Q01DX001 (ip), vehicle: other) is 0 of 6; the survivor count (T/C endpoint: mean survival time, dose: 300.0 mg/kg/injection, schedule: Q01DX001 (ip), vehicle: other) was 0 of 6.
Regarding `CC(=O)OCC1OC(n2ncc3c(Sc4c([N+](=O)[O-])ncn4C)ncnc32)C(OC(C)=O)C1OC(C)=O` (stereo not given), the survivor count under setting [7] is on record as 1 of 6 and the survivor count under setting [8] is 1 of 6.
Turning to `CC1=C(C)C(=O)O[C@@H]([C@](C)(O)[C@]2(O)CC[C@@]3(O)[C@@H]4C[C@H]5O[C@]56[C@@H](O)C=CC(=O)[C@]6(C)[C@H]4CC[C@]23C)C1`, the survivor count (T/C endpoint: mean survival time, dose: 64.0 mg/kg/injection, schedule: Q01DX009 (ip), vehicle: suspension in saline) was 0 of 6.
Turning to `Cc1c2cc3c(cc2cc2c4cc5c(cc4cc[n+]12)OCO5)OCO3` (tested in a mixture with another compound), the T/C was 128 % of control (T/C endpoint: mean survival time, dose: 8.33 mg/kg/injection, schedule: Q04DX003 (ip), vehicle: saline) and 125, 128, 129 % of control (T/C endpoint: mean survival time, dose: 12.5 mg/kg/injection, schedule: Q04DX003 (ip), vehicle: saline). The survivor count (T/C endpoint: mean survival time, dose: 100.0 mg/kg/injection, schedule: Q04DX003 (ip), vehicle: saline) is given as 6 of 6; the survivor count under setting [4] is 1 of 6; the survivor count under setting [5] was 0 of 6.
Turning to `C=CC(CN1CC1)OC(C)=O` (stereo not given), the T/C is 134 % of control (T/C endpoint: mean survival time, dose: 2.5 mg/kg/injection, schedule: Q01DX007 (ip), vehicle: saline); 145 % of control (T/C endpoint: mean survival time, dose: 2.5 mg/kg/injection, schedule: Q01DX009 (ip), vehicle: saline); 141 % of control (T/C endpoint: mean survival time, dose: 3.75 mg/kg/injection, schedule: Q01DX009 (ip), vehicle: saline); 128 % of control (T/C endpoint: mean survival time, dose: 10.0 mg/kg/injection, schedule: Q01DX007 (ip), vehicle: saline); 126 % of control (T/C endpoint: mean survival time, dose: 10.0 mg/kg/injection, schedule: Q01DX009 (ip), vehicle: saline); 145 % of control (T/C endpoint: mean survival time, dose: 10.0 mg/kg/injection, schedule: Q03DX003 (ip), vehicle: saline). Also, the survivor count (T/C endpoint: mean survival time, dose: 30.0 mg/kg/injection, schedule: Q01DX009 (ip), vehicle: saline) was 2 of 6.
For the compound `Cc1nnc2ncccn12`, the survivor count (T/C endpoint: mean survival time, dose: 400.0 mg/kg/injection, schedule: Q01DX009 (ip), vehicle: saline) was 0 of 10 and 4 of 6.
On to `c1ccc(CCc2ccccn2)nc1`, for which the survivor count reads like this: under setting [3], 3 of 6; under setting [6], 0 of 6.
In the case of `O=C(CBr)c1cc2ncccc2c2ccccc12`, the survivor count reads like this: under setting [7], 0 of 6; under setting [8], 0 of 6.
For `CCOC(=O)Nc1cc(NC(C)/C(=N/O)c2ccccc2)c([N+](=O)[O-])c(N)n1` (stereo not given), the T/C was 128 and 135 % of control (T/C endpoint: median survival time, dose: 72.0 mg/kg/injection, schedule: Q01DX005 (ip), vehicle: Klucel (hydroxypropylcellulose) (HPC)); 138 % of control under setting [9]. The survivor count is, setting by setting: under setting [9], 6 of 6; (T/C endpoint: median survival time, dose: 120.0 mg/kg/injection, schedule: Q01DX005 (ip), vehicle: Klucel (hydroxypropylcellulose) (HPC)) 6 of 6; (T/C endpoint: median survival time, dose: 200.0 mg/kg/injection, schedule: Q01DX005 (ip), vehicle: Klucel (hydroxypropylcellulose) (HPC)) 3 of 6 and 6 of 6; (T/C endpoint: median survival time, dose: 333.3 mg/kg/injection, schedule: Q01DX005 (ip), vehicle: Klucel (hydroxypropylcellulose) (HPC)) 3 of 6; (T/C endpoint: median survival time, dose: 400.0 mg/kg/injection, schedule: Q01DX005 (ip), vehicle: Klucel (hydroxypropylcellulose) (HPC)) 2 of 6 and 3 of 6; (T/C endpoint: median survival time, dose: 555.5 mg/kg/injection, schedule: Q01DX005 (ip), vehicle: Klucel (hydroxypropylcellulose) (HPC)) 1 of 6.
Turning to `O=C(O)C1=CC=C(c2ccccc2)C(=O)C1`, the survivor count is reported as 6 of 6 (T/C endpoint: mean survival time, dose: 100.0 mg/kg/injection, schedule: Q01DX009 (ip), vehicle: saline with Tween-80); 5 of 6 (T/C endpoint: mean survival time, dose: 200.0 mg/kg/injection, schedule: Q01DX009 (ip), vehicle: saline with Tween-80); 1 of 6 under setting [1].
For the compound `O=C(O)C(O)C(O)C(O)CO.[Zn+2]` (stereo not given), the survivor count (T/C endpoint: mean survival time, dose: 100.0 mg/kg/injection, schedule: Q04DX002 (ip), vehicle: saline with Tween-80) was 0 of 3; the survivor count (T/C endpoint: mean survival time, dose: 200.0 mg/kg/injection, schedule: Q04DX002 (ip), vehicle: saline with Tween-80) is on record as 0 of 3; the survivor count (T/C endpoint: mean survival time, dose: 400.0 mg/kg/injection, schedule: Q04DX002 (ip), vehicle: saline with Tween-80) is recorded as 0 of 3.
Turning to `CCC1CCC(NC(C)=O)CC1` (stereo not given), the survivor count is listed as 3 of 6 (T/C endpoint: mean survival time, dose: 200.0 mg/kg/injection, schedule: Q01DX001 (ip), vehicle: saline with Tween-80) and 0 of 6 under setting [1].
Take `COc1ccc(/C=c2\[nH]c(=O)/c(=C/c3ccc(OC)c(OC)c3)[nH]c2=O)cc1OC`: the survivor count reads like this: under setting [2], 6 of 6; under setting [3], 6 of 6; under setting [6], 6 of 6.
`OCc1ccn2c1CCC2`: the survivor count (T/C endpoint: mean survival time, dose: 25.0 mg/kg/injection, schedule: Q01DX009 (ip), vehicle: Klucel (hydroxypropylcellulose) (HPC)) is 6 of 6 and the survivor count (T/C endpoint: mean survival time, dose: 200.0 mg/kg/injection, schedule: Q01DX009 (ip), vehicle: Klucel (hydroxypropylcellulose) (HPC)) was 3 of 6.
As to `O=C(O)c1cc(F)c(F)c(F)c1F`, the survivor count runs as follows: under setting [2], 0 of 6 and 6 of 6; under setting [3], 0 of 6; under setting [6], 0 of 6.
Regarding `CC[n+]1ccc(Nc2ccc(NC(=O)c3ccc(Nc4cc[n+](CC)c5ccc([N+](=O)[O-])cc45)cc3)cc2)cc1`, the T/C (T/C endpoint: mean survival time, dose: 16.5 mg/kg/injection, schedule: Q01DX009 (ip), vehicle: saline) was 140 % of control.
